The text below walks through data of publication doi:10.1101/2025.06.16.658187.

Protein sequences, listed by entry. Tags and fused reporters are not part of them.
UniProt Q13263: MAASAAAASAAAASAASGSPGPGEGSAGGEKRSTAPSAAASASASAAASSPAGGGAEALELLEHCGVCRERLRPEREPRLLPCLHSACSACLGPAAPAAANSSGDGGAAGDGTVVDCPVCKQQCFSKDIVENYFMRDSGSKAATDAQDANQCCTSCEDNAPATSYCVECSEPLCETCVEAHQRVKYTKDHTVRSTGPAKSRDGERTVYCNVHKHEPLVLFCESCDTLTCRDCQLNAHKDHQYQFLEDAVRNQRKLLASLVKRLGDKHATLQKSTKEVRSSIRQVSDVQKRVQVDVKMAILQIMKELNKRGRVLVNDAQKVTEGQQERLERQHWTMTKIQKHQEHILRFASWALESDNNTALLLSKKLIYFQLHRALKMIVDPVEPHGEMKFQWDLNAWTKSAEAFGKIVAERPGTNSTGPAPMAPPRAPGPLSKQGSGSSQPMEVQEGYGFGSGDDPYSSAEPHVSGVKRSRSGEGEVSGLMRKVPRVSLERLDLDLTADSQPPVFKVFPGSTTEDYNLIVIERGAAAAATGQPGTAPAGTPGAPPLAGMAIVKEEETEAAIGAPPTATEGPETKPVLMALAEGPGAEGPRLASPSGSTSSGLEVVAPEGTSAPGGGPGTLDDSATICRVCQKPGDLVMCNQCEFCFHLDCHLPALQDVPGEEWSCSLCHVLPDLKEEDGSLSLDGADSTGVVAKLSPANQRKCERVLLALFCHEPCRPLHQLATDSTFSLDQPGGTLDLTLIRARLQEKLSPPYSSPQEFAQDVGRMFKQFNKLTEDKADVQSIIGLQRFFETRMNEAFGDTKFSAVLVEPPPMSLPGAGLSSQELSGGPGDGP

One experiment concerns the target T1, Flag-tagged COUP-TF2 (UniProt P24468).
T1 sequence: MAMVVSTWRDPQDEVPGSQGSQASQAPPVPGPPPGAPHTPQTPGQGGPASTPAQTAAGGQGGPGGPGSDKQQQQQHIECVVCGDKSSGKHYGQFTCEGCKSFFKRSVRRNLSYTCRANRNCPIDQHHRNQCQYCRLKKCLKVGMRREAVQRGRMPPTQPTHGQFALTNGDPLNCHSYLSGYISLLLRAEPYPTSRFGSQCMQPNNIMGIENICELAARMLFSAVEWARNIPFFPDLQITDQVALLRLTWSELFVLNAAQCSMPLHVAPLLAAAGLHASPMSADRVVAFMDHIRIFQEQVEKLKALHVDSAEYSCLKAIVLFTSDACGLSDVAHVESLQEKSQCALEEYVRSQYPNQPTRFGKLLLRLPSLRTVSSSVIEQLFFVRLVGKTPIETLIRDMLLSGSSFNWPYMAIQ
As to the kind of experiment: co-IP.

A further experiment deals with T2, Flag-tagged TR4 (UniProt P49116).
T2 sequence: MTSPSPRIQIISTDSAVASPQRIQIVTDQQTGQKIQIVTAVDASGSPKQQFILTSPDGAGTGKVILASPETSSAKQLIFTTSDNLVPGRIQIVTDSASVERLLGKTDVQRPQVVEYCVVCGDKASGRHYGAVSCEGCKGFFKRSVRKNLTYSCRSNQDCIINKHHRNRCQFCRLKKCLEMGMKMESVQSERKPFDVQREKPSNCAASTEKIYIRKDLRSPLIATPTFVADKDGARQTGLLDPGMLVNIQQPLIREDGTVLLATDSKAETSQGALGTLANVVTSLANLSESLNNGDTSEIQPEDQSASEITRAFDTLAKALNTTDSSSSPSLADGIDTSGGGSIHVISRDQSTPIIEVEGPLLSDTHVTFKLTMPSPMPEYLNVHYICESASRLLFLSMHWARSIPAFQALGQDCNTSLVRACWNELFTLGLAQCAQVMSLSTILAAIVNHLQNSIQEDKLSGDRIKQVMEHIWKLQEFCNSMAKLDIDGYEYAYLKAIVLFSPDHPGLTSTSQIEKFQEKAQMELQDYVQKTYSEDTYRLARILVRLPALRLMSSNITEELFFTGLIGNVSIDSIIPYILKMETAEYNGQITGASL
Nature of the experiment: co-IP.

These are yes or no findings as the source states them, for the method shown. In cells and extracts the contact can be indirect. Some binding calls cover weakened binding; strength is not graded here. Where a sequence is shown, tags or fusion partners need not be part of it.

As to “Tripartite motif-containing 28 (TRIM28), endogenous in WI38-VA13/2RA cells (from UniProt Q13263 1-835)”, the binding result with Flag-tagged COUP-TF2 and with Flag-tagged TR4 was “binds” each time.
